{"source": "PubChem BioAssay AID504444", "about": "(National Center for Advancing Translational Sciences (NCATS), 2011)", "note": "Screen size: about 360,000 compounds; about 7,500 (2.1%) were called active. The shares of active, inactive and inconclusive entries below differ from those in the screen. Calls follow the shape of the dose curve; as a rule, active = well fitted inhibition curve with a large enough effect; inconclusive = small, poorly fitted or top-dose-only effect, or effect the other way; inactive = flat fitted curve, though single readings scatter. Potencies beside an inconclusive call are fits to weak or partial responses and may not hold up. % is scaled to controls: 0 for no effect and ±100 for the full control effect; potency is read from the fitted curve at half-maximal effect.", "data": [{"test": "Nrf2 qHTS screen for inhibitors; also: nearly all actives have a fitted effect of over 60% in size", "details": "A549 ARE-Fluc reporter, luciferase luminescence, 18-24 h; activity change, negative = inhibition: at 46 µM (top of the series)", "procedure,_shortened": "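A549 ARE_Fluc cells, 5000/well, 5% FBS OPTI-MEM; compounds in dose-response, 18-24 h at 37 °C/5% CO2; CellTiter-Fluor viability read (Ex 405/Em 525), then BugLite luciferase luminescence = Nrf2 activity.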", "values": [{"smiles": "Cc1ccc(NC(=O)CNCC(c2ccccc2)N(C)C)cc1F", "note": "(stereo unspecified)", "Potency": "inconclusive: 29.1 µM [activator, single point]"}, {"smiles": "O=C(Cn1ncc2c3ccccc3n(Cc3ccc(Cl)cc3)c2c1=O)N1CCCCCC1", "Potency": "inconclusive: 16.4 µM [falling, single point]"}, {"smiles": "COc1ccc(C(=O)Oc2cccc(/C=N/NC(N)=S)c2)cc1", "Potency": "inconclusive: 29.1 µM [activator, single point]"}, {"smiles": "Clc1ccc(CSc2nnc(NC3=NCCCCC3)s2)cc1", "Potency": "inconclusive: 23.1 µM [falling, single point]"}, {"smiles": "CCOc1ccc(OCc2ccc(C(=O)N3CCCC(C)C3)cc2)cc1", "note": "(stereo unspecified)", "Potency": "inconclusive: 6.51 µM [activator, single point]"}, {"smiles": "COc1cccc(-c2cn3c(n2)sc2cc(C(=O)NC4CCCCCC4)ccc23)c1", "activity change, negative = inhibition": "inactive: -4.64%"}, {"smiles": "COc1ccc(Br)cc1CNC(=O)Cn1c(=O)c2cccn2c2ccc(F)cc21", "activity change, negative = inhibition": "inactive: 3.68%"}, {"smiles": "CCN(CC)CCN1C(=O)c2ccccc2NC1c1ccc(OC)c(COc2ccc(NC(C)=O)cc2)c1", "note": "(stereo unspecified)", "activity change, negative = inhibition": "inactive: 1.64%"}, {"smiles": "COc1ccc(OC)c2nc3c(C(=O)NCCN(C)C)cccc3nc12", "Potency": "active: 5.8 µM"}, {"smiles": "CCC(=O)Nc1ccc(-c2ccc(N3CCC(C)CC3)nn2)cc1", "Potency": "inconclusive: 3.66 µM [activator, partial curve, poor fit]"}, {"smiles": "Cc1ccccc1Cn1cc(CCC(=O)NC(C)c2ccccc2)c2ccccc21", "note": "(stereo unspecified)", "activity change, negative = inhibition": "inactive: 7.6%"}, {"smiles": "CCN(CC(=O)Nc1ccc(NC(C)=O)cc1)C(=O)c1ccc(COc2ccccc2)o1", "Potency": "inconclusive: 20.6 µM [falling, partial curve, poor fit]"}, {"smiles": "Cc1ccc(Cn2nnc3c(=O)n(CC(=O)N4CCN(c5ccccc5)CC4)cnc32)cc1", "Potency": "inconclusive: 0.259 µM [falling, partial curve, poor fit]"}, {"smiles": "NNC(=O)C(=O)Nc1ccc(O)cc1", "Potency": "inconclusive: 25.9 µM [falling, single point]"}, {"smiles": "CC(C)c1ccc(CN2CCN(C(=O)CCl)CC2)cc1", "Potency": "inconclusive: 29.1 µM [falling, single point]"}, {"smiles": "CCOc1ccc(NC(=O)c2oc3ccccc3c2NC(=O)Cc2ccc(F)cc2)cc1", "activity change, negative = inhibition": "inactive: -6.35%"}, {"smiles": "CCC(C)c1ccc(OCC(=O)Nc2cccc(-c3nc4ncccc4o3)c2)cc1", "note": "(stereo unspecified)", "Potency": "inconclusive: 18.4 µM [falling, single point]"}, {"smiles": "CCCCOc1ccc(C(=O)OCC(=O)c2c(N)n(C)c(=O)n(C)c2=O)cc1", "Potency": "inconclusive: 16.4 µM [falling, single point]"}, {"smiles": "COC(=O)c1cc(NC(=O)c2oc(=O)c3ccccc3c2-c2ccccc2)cc(C(=O)OC)c1", "activity change, negative = inhibition": "inactive: 0.565%"}, {"smiles": "Cc1ccc(NC(=O)CN2C(=O)CSc3ccc(S(=O)(=O)N4CCCC4)cc32)cc1F", "Potency": "inconclusive: 11.6 µM [falling, partial curve, poor fit]"}, {"smiles": "CCCC(=O)c1ccc(N2CCN(C(=O)c3ccc(Br)cc3)CC2)c(F)c1", "Potency": "inconclusive: 29.1 µM [falling, single point]"}, {"smiles": "NC1(C(=O)O)CSSC1", "Potency": "inconclusive: 25.9 µM [activator, partial curve, poor fit]"}, {"smiles": "CSc1oc(-c2ccco2)nc1S(=O)(=O)c1ccc(C)cc1", "Potency": "inconclusive: 2.31 µM [falling, full curve]"}, {"smiles": "CCCC12CN3CC(C)(CN(C1)C31C(=O)Nc3ccc(C)cc31)C2=O", "note": "(stereo unspecified)", "activity change, negative = inhibition": "inactive: -0.39%"}, {"smiles": "O=C(NC(=S)Nc1ccc(N2CCOCC2)c(Cl)c1)c1cccs1", "Potency": "inconclusive: 29.1 µM [activator, single point]"}, {"smiles": "O=C1NC2(CCC3(CC2)OCCO3)NN1c1ccc(Cl)cc1", "Potency": "inconclusive: 0.651 µM [activator, partial curve, poor fit]"}, {"smiles": "COc1ccc(C2=Nn3c(nnc3-c3ccccc3C(F)(F)F)SC2)cc1OC1CCOC1", "note": "(stereo unspecified)", "Potency": "inconclusive: 20.6 µM [falling, single point]"}, {"smiles": "COc1ccc(-n2c(SCC(=O)N3CCN(c4ccccc4)CC3)nc3c(c2=O)SCC3)cc1", "Potency": "inconclusive: 10.3 µM [falling, partial curve]"}, {"smiles": "O=C(Nc1ccc(N2CCCC2)c(S(=O)(=O)Nc2cccc(C(F)(F)F)c2)c1)c1cccs1", "Potency": "inconclusive: 18.4 µM [falling, single point]"}, {"smiles": "COc1ccc(-n2c(SCC(=O)Nc3nc(C)cs3)nnc2-c2ccoc2C)cc1", "Potency": "inconclusive: 13 µM [falling, partial curve, poor fit]"}, {"smiles": "O=C(N/N=C/c1cn(-c2ccccc2)nc1-c1cc2ccccc2o1)c1ccccc1Br", "Potency": "inconclusive: 7.31 µM [activator, partial curve]"}, {"smiles": "CCOc1ccc(S(=O)(=O)NCCC(=O)N2CCN(c3ccccc3O)CC2)cc1", "Potency": "inconclusive: 13 µM [falling, partial curve, poor fit]"}, {"smiles": "CCOC(=O)c1[nH]c2ccccc2c1NC(=O)c1ccccc1OCC", "Potency": "inconclusive: 1.64 µM [activator, partial curve, poor fit]"}, {"smiles": "Cc1cccc(CNc2ncnc3ccc(-c4ccc5c(c4)OCO5)cc23)c1", "Potency": "inconclusive: 20.6 µM [falling, partial curve, poor fit]"}, {"smiles": "S=c1[nH]nc(-c2ccccn2)n1/N=C/c1ccc(-c2ccccc2Br)o1", "Potency": "inconclusive: 23.1 µM [activator, single point]"}, {"smiles": "CC1Cc2nc(SCC(=O)Nc3nc4ccccc4s3)n(C)c(=O)c2S1", "note": "(stereo unspecified)", "Potency": "inconclusive: 16.4 µM [falling, single point]"}, {"smiles": "O=C(CCN1C(=O)NC2(CCCC2)C1=O)Nc1ccc(-c2nc3ccccc3s2)cc1", "activity change, negative = inhibition": "inactive: 11.6%"}, {"smiles": "Fc1ccc2[nH]c3c(N4CCN(Cc5ccc6c(c5)OCO6)CC4)ncnc3c2c1", "Potency": "active: 10.3 µM"}, {"smiles": "Cc1ccc(S(=O)(=O)N(C)C)cc1NC(=O)c1sccc1Cl", "Potency": "inconclusive: 32.6 µM [activator, single point]"}, {"smiles": "Cc1ccc(S(=O)(=O)N(CC(=O)Nc2ccc(C(C)C)cc2)Cc2ccccc2)cc1", "Potency": "inconclusive: 29.1 µM [falling, single point]"}, {"smiles": "CCOC(=O)c1cnc2cc(-c3ccc(Br)cc3)nn2c1C", "Potency": "inconclusive: 29.1 µM [activator, single point]"}]}]}
